Data as given in PubChem BioAssay AID1259405 (NCATS, 2018)
The whole screen tested about 50,000 reagents; below is a random part of them. About 4,000 of all reagents (8%) count as active. 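Mouse siRNA library applied to hamster cells; one well for each siRNA.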 Unmarked entries are inactive. Reagents against one gene are numbered here.

Test: 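Mouse-designed siRNAs used to find CHO productivity engineering targets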 (primary screen)
Cells: Chinese hamster CHO-K1 ovary cells with stable secreted eGFP expression
Reagent: single siRNA against mouse genes, 0.8 pmol siRNA per well (2 µl of 400 nM stock)
Time to read-out: 3 days
Measurement: 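Percent of the per-plate non-targeting control median for intracellular GFP per well by laser scanning cytometry and for cell viability by ATP luminescence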
Reading the numbers: GFP, % of control: higher = more GFP per well, higher productivity; viability (ATP), % of control: higher = more viable cells (more ATP)
Hit rule: 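Called active when intracellular GFP, relative to negative control, is at or above 120%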

Target gene	reagent no.	GFP, % of control	viability (ATP), % of control
Rps20 (ribosomal protein S20)	1	65	62.8
Rps20 (ribosomal protein S20)	2	64.2	31.1
Rps20 (ribosomal protein S20)	3	60.2	46.3
Ube2b (ubiquitin-conjugating enzyme E2B)	1	91.8	65.5
Ube2b (ubiquitin-conjugating enzyme E2B)	2	95.1	103
Ube2b (ubiquitin-conjugating enzyme E2B)	3	91.4	109
4933427E11Rik (RIKEN cDNA 4933427E11 gene)	1	72.8	88
4933427E11Rik (RIKEN cDNA 4933427E11 gene)	2	78.1	109
4933427E11Rik (RIKEN cDNA 4933427E11 gene)	3	80.8	98.6
Helz (helicase with zinc finger domain)	1	63.1	76.8
Helz (helicase with zinc finger domain)	2	83	81.7
Helz (helicase with zinc finger domain)	3	53.2	40.1
Syn2 (synapsin II)	1	63.8	48.6
Syn2 (synapsin II)	2	67	59.5
Syn2 (synapsin II)	3	102	53.2
Resf1 (retroelement silencing factor 1)	1	48.9	18.8
Resf1 (retroelement silencing factor 1)	2	141 (active)	66.9
Resf1 (retroelement silencing factor 1)	3	68.8	62.9
Zfp318 (zinc finger protein 318)	1	46.7	52.5
Zfp318 (zinc finger protein 318)	2	105	60
Zfp318 (zinc finger protein 318)	3	96.4	93.6
Mrpl21 (mitochondrial ribosomal protein L21)	1	58.6	74.1
Mrpl21 (mitochondrial ribosomal protein L21)	2	90.5	100
Mrpl21 (mitochondrial ribosomal protein L21)	3	89.9	93.1
Galnt6 (polypeptide N-acetylgalactosaminyltransferase 6)	1	92.4	93.8
Galnt6 (polypeptide N-acetylgalactosaminyltransferase 6)	2	73.3	107
Galnt6 (polypeptide N-acetylgalactosaminyltransferase 6)	3	85	108
Unc13b (unc-13 homolog B)	1	106	104
Unc13b (unc-13 homolog B)	2	81.2	69.7
Unc13b (unc-13 homolog B)	3	61.7	74.6
Adprh (ADP-ribosylarginine hydrolase)	1	106	87.7
Adprh (ADP-ribosylarginine hydrolase)	2	66.4	111
Adprh (ADP-ribosylarginine hydrolase)	3	87	97.3

Next part, starting with the last 4 of the part before.
Target gene	reagent no.	GFP, % of control	viability (ATP), % of control
Unc13b (unc-13 homolog B)	3	61.7	74.6
Adprh (ADP-ribosylarginine hydrolase)	1	106	87.7
Adprh (ADP-ribosylarginine hydrolase)	2	66.4	111
Adprh (ADP-ribosylarginine hydrolase)	3	87	97.3
Cct7 (chaperonin containing TCP1 subunit 7)	1	87.9	83.8
Cct7 (chaperonin containing TCP1 subunit 7)	2	47.6	42.7
Cct7 (chaperonin containing TCP1 subunit 7)	3	80.7	41
D830044D21Rik (RIKEN cDNA D830044D21 gene)	1	50.4	79
D830044D21Rik (RIKEN cDNA D830044D21 gene)	2	87.1	82.9
D830044D21Rik (RIKEN cDNA D830044D21 gene)	3	111	97.6
Heatr5a (HEAT repeat containing 5A)	1	65.1	88.2
Heatr5a (HEAT repeat containing 5A)	2	79.3	88
Heatr5a (HEAT repeat containing 5A)	3	73.7	72
Sult1e1 (sulfotransferase family 1E, member 1)	1	67.2	59.9
Sult1e1 (sulfotransferase family 1E, member 1)	2	82.9	143
Sult1e1 (sulfotransferase family 1E, member 1)	3	71	125
Pfn2 (profilin 2)	1	85	75.7
Pfn2 (profilin 2)	2	61.3	76.8
Pfn2 (profilin 2)	3	77	108
Or4f14d (olfactory receptor family 4 subfamily F member 14D)	1	81	75.4
Or4f14d (olfactory receptor family 4 subfamily F member 14D)	2	76.1	83.6
Or4f14d (olfactory receptor family 4 subfamily F member 14D)	3	53.2	92.2
Or5b108 (olfactory receptor family 5 subfamily B member 108)	1	54.8	72.8
Or5b108 (olfactory receptor family 5 subfamily B member 108)	2	62.9	89.1
Or5b108 (olfactory receptor family 5 subfamily B member 108)	3	53.9	77.5
Or4c15 (olfactory receptor family 4 subfamily C member 15)	1	26	46.8
Or4c15 (olfactory receptor family 4 subfamily C member 15)	2	57.4	66.8
Or4c15 (olfactory receptor family 4 subfamily C member 15)	3	61.1	77.8
Tacc3 (transforming, acidic coiled-coil containing protein 3)	1	136 (active)	110
Tacc3 (transforming, acidic coiled-coil containing protein 3)	2	40	91.8
Tacc3 (transforming, acidic coiled-coil containing protein 3)	3	143 (active)	124
Ankrd10 (ankyrin repeat domain 10)	1	80.3	47
Ankrd10 (ankyrin repeat domain 10)	2	57.6	57.7
Ankrd10 (ankyrin repeat domain 10)	3	79.6	65.6
Bend3 (BEN domain containing 3)	1	138 (active)	76.6
Bend3 (BEN domain containing 3)	2	79.4	96.1
Bend3 (BEN domain containing 3)	3	104	102
Calhm6 (calcium homeostasis modulator family member 6)	1	57.8	39.8
Calhm6 (calcium homeostasis modulator family member 6)	2	28.6	33.7
Calhm6 (calcium homeostasis modulator family member 6)	3	102	74.4
BC005537 (cDNA sequence BC005537)	1	75.8	92.3
BC005537 (cDNA sequence BC005537)	2	70.1	83.6
BC005537 (cDNA sequence BC005537)	3	141 (active)	138
Kcnip2 (Kv channel-interacting protein 2)	1	70.9	87.7
Kcnip2 (Kv channel-interacting protein 2)	2	88.5	52.2
Cyp2d12 (cytochrome P450, family 2, subfamily d, polypeptide 12)	1	164 (active)	63.3
Cyp2d12 (cytochrome P450, family 2, subfamily d, polypeptide 12)	2	53.5	79
Cyp2d12 (cytochrome P450, family 2, subfamily d, polypeptide 12)	3	71	52.7
Zhx2 (zinc fingers and homeoboxes 2)	1	69.5	76.7
Zhx2 (zinc fingers and homeoboxes 2)	2	75.2	74.6
Gpr107 (G protein-coupled receptor 107)	1	41.2	74.9
Gpr107 (G protein-coupled receptor 107)	2	60	95.5
Ero1a (endoplasmic reticulum oxidoreductase 1 alpha)	1	80.8	103
Ero1a (endoplasmic reticulum oxidoreductase 1 alpha)	2	55.5	70.5
Ero1a (endoplasmic reticulum oxidoreductase 1 alpha)	3	71.1	71.1
